These are yes or no findings as the source states them, for the method shown. Binding seen in cells or lysates may run through a third protein. Some entries that bind do so weakly or less than the wild type.
Molecular target: GST-Azu (glutathione S-transferase-tagged azurin) (Pseudomonas aeruginosa PAO1) (UniProt P00282)
Assay: pull-down; cell lysates of P. aeruginosa containing pMMB67H-VgrG2a-Flag or pMMB67H-VgrG2b-Flag incubated with GST or GST-Azu; complexes captured by glutathione beads; only the target purified

The chains behind the UniProt entries cited, without tags or fusion partners. Residues count along the entry.
UniProt P00282, residues 21-148: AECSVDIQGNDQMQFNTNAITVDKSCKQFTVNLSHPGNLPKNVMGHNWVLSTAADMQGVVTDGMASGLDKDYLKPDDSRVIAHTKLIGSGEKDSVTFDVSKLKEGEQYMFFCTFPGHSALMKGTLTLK
UniProt Q9I3K1: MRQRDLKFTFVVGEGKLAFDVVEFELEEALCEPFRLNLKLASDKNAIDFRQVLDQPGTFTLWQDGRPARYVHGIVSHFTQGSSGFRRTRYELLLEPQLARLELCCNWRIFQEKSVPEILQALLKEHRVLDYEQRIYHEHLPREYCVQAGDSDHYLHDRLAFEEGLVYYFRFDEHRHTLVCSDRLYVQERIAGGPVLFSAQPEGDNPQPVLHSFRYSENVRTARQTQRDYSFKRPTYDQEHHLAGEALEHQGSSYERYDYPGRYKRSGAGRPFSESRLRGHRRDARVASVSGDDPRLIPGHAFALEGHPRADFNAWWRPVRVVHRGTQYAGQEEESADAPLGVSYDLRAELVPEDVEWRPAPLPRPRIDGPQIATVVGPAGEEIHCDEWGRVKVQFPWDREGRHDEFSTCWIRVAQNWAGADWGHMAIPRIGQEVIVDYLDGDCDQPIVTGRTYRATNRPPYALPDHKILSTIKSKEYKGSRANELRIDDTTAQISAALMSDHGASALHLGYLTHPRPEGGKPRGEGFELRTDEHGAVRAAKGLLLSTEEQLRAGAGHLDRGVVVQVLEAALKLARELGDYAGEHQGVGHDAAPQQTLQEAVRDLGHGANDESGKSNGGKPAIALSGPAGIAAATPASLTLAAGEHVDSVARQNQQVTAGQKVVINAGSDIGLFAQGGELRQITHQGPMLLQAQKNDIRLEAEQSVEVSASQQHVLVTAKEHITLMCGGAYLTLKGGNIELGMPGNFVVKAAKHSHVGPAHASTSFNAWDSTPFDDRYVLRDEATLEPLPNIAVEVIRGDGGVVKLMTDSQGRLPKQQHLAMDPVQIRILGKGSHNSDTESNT
UniProt Q9I6M7: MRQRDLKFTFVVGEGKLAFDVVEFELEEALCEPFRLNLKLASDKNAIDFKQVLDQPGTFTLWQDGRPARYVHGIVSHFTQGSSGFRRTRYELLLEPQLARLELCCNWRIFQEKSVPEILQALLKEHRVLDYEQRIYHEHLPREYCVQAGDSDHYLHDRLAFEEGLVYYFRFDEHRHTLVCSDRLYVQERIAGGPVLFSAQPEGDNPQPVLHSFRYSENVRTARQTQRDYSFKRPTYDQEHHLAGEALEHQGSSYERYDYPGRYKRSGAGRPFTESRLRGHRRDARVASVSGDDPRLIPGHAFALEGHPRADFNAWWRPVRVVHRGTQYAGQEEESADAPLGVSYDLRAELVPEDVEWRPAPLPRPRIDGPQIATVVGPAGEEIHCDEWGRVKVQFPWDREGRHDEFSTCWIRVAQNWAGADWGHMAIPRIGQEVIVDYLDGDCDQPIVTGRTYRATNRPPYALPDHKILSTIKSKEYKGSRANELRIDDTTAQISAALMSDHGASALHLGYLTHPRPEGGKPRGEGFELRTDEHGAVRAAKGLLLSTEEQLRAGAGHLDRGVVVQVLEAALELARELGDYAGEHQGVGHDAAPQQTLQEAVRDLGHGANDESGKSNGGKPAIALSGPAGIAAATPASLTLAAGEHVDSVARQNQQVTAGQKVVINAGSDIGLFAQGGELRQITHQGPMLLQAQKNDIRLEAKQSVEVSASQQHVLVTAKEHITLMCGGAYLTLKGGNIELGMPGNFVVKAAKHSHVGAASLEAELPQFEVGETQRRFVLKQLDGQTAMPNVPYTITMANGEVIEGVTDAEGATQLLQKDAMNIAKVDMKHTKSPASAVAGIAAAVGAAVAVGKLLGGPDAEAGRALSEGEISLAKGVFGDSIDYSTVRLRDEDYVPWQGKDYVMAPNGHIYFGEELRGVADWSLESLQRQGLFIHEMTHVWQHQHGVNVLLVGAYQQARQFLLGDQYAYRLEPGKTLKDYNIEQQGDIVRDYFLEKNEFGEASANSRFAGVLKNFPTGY

Substance	binding
VgrG2a-Flag (from UniProt Q9I3K1 1-842)	no binding
VgrG2b-Flag (from UniProt Q9I6M7 1-1019)	binds

From publication PMC6907878
